Results: publication PMC10912200
No constants are given. Whether binding was seen depends on the method and setting. Some results given as binding are weak or reduced against the parent protein; the word gives no strength. Where a sequence is shown, tags or fusion partners need not be part of it.

Protein sequences, listed by entry. Tags and fused reporters are not part of them.
UniProt O15393: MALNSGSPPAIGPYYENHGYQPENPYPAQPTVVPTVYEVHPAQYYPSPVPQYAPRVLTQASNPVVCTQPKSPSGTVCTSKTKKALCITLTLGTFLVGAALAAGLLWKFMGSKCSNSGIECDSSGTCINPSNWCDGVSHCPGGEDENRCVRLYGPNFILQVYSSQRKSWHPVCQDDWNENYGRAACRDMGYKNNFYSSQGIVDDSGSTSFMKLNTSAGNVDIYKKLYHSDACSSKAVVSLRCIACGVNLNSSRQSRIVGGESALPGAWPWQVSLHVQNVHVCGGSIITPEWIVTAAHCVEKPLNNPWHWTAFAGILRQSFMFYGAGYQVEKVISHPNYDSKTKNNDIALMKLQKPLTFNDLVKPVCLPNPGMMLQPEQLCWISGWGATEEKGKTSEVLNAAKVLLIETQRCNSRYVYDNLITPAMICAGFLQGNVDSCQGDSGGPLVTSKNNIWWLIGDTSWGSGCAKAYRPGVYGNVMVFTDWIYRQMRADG

Target: TMPRSS2 on MCF-7 cells (human (endogenous in MCF-7)) (UniProt O15393)
Assay: confocal fluorescence microscopy of cell surface binding; only the binder purified

B1: GFP-TcsH^2210–2618 (WT) (domain or fragment, UniProt M9ZTT7 2210-2618)
chain: AITGWQVIDDKKYYFNSNTAVADTNLCTINNEKYYFSYDGILQNGYITIGRLNFYFDSNNDSKMTTGVFKGPNGFEYFAPANTYNNNLEGQAIVYQNKFLTINGKKYYFDNKSKAVTGWQTIDGKKYYFNPNTAIAAMGWQAIDGKKYYFNPNTAIATTGWQTIDGKKYYFNPNTAIAATGWQAIDGKKYYFNPNTATTSIGYTTINSKNFYFNNDGIMQLGVFKGPDGFEYFAPANTHNNNEEGQSITYQNKFLIFNEDVYYFDSSSKAVTGWRTIDDHRFYFEPNTGIGANGYKTLDGKNFYFRNGLPQFGVFKGPDGFEYFAPANTHNNNEEGQSITYQNKFLVFLGNRYYFDSSSKAVTGWQTINGNTYYFMPDTAIAAAGGFFTIDGAIYFFGIDGVKQPGIYG
With B1 the binding was “binds”.
